# The other results are listed elsewhere or left out. Small differences around the control level are noise.
# By UniProt entry, the sequences of proteins in these tests, tags left out. Where a name states a change or a piece, a line headed by the entry shows the natural chain unless it says otherwise.
# UniProt Q9Y6K8: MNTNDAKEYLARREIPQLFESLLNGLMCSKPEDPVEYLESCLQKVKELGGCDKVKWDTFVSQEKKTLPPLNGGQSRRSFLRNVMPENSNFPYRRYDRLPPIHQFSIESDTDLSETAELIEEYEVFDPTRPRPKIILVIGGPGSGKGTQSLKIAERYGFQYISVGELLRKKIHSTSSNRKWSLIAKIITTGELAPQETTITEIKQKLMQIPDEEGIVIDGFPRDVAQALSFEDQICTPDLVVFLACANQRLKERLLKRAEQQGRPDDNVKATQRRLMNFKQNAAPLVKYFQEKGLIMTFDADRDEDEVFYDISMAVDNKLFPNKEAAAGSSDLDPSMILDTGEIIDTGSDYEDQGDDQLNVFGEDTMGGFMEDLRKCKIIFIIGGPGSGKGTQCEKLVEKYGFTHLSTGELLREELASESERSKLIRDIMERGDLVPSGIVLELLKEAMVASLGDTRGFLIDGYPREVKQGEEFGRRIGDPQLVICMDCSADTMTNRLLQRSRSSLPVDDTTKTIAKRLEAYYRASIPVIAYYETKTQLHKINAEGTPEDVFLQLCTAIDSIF
# UniProt Q9Y333: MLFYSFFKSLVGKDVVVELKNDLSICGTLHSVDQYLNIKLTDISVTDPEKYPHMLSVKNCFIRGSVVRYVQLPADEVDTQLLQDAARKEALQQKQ
# UniProt Q9Y2Y6: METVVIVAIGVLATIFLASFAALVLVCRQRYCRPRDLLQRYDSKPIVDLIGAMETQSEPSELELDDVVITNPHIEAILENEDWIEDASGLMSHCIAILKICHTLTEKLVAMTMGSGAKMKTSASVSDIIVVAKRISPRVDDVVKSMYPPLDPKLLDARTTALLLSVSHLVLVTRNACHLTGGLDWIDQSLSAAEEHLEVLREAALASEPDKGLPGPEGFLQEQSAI
# UniProt Q9Y3C8: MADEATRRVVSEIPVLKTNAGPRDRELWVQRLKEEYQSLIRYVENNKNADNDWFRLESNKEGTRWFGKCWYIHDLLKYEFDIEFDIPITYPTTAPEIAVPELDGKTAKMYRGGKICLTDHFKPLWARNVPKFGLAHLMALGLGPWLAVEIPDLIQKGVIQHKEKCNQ
# UniProt Q9Y2V7: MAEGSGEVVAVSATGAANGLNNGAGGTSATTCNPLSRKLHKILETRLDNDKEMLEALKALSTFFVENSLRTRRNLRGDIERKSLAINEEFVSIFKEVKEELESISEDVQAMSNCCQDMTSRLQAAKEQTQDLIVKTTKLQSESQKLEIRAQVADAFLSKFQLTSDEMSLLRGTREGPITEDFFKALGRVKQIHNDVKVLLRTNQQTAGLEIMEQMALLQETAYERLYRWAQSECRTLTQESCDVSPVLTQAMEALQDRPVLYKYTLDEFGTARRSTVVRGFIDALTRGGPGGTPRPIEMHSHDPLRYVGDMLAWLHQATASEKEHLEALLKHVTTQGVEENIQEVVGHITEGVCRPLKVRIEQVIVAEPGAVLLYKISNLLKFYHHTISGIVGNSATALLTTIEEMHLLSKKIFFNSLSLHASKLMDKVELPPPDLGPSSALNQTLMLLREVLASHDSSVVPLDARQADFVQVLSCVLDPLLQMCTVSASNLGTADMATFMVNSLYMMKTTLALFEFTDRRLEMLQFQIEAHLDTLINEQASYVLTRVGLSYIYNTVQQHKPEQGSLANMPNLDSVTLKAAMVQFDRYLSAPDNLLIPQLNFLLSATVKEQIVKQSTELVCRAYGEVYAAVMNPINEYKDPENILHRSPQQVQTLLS
# UniProt Q9Y6R9: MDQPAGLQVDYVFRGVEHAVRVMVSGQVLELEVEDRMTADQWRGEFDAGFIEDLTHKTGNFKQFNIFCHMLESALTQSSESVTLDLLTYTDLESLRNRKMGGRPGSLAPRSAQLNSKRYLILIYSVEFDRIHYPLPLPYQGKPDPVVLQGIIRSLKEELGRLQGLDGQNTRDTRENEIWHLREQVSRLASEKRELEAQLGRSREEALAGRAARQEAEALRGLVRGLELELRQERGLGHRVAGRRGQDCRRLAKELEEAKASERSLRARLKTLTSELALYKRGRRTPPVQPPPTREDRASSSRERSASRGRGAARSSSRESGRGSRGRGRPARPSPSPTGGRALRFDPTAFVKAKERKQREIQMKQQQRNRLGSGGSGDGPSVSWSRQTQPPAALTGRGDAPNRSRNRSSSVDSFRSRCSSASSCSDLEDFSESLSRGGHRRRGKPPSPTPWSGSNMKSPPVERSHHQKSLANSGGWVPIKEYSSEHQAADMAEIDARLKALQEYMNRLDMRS
# UniProt Q9Y6D5: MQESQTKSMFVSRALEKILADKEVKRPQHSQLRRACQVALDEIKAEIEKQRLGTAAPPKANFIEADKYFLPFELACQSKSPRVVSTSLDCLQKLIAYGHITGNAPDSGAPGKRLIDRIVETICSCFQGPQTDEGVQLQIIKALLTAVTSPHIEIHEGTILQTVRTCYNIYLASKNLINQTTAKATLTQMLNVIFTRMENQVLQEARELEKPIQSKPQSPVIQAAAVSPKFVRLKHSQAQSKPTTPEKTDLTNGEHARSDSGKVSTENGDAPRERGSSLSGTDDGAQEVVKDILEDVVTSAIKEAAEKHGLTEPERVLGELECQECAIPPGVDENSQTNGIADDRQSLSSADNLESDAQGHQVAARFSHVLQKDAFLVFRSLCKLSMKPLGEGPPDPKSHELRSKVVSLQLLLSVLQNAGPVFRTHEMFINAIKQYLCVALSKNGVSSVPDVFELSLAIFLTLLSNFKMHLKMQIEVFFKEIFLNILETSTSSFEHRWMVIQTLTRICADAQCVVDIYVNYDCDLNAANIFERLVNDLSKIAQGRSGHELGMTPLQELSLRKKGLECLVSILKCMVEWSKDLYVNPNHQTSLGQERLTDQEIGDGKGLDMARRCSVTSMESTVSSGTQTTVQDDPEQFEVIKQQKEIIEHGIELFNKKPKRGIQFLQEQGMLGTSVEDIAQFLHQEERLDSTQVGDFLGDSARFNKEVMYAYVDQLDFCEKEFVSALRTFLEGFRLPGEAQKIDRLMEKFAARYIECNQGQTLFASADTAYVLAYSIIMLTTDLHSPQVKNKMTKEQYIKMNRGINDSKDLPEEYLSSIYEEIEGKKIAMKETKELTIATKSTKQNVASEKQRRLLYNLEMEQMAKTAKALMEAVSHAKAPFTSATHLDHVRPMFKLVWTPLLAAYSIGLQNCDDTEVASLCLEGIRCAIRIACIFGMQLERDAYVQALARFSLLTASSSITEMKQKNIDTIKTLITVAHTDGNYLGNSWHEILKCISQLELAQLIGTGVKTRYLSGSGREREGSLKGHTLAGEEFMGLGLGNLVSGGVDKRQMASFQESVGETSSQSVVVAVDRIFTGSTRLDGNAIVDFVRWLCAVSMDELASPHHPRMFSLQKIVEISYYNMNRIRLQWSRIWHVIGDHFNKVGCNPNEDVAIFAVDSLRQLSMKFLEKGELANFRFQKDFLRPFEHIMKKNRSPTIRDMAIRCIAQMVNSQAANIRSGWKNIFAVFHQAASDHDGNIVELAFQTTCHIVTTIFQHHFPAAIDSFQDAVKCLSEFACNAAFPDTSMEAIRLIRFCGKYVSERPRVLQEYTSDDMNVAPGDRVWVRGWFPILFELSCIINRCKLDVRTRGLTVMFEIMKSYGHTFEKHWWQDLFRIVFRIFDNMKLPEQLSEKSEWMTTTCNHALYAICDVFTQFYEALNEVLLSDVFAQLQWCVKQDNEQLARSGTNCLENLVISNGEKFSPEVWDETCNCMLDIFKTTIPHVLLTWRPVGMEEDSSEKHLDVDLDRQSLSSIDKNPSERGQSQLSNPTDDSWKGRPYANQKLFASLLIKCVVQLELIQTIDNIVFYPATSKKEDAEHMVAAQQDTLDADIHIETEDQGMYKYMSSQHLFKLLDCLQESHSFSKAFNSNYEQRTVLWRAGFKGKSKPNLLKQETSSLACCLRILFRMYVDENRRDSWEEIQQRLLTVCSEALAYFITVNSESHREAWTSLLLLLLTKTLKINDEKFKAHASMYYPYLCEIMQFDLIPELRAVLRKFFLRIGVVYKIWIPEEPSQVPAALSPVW
# UniProt Q9Y587: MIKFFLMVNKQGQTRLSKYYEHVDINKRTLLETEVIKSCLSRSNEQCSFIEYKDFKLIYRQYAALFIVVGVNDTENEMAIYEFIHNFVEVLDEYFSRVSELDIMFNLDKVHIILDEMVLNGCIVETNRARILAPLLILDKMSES
# UniProt Q9Y448: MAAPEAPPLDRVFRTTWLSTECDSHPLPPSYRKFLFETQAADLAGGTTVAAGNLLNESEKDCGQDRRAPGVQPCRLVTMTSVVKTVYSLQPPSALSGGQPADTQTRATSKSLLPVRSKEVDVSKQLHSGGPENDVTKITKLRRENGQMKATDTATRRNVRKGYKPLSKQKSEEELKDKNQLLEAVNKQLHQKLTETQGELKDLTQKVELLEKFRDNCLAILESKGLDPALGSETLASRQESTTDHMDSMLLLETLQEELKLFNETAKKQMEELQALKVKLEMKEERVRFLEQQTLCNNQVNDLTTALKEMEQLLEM
# UniProt Q9Y5T5, whole entry, looked up: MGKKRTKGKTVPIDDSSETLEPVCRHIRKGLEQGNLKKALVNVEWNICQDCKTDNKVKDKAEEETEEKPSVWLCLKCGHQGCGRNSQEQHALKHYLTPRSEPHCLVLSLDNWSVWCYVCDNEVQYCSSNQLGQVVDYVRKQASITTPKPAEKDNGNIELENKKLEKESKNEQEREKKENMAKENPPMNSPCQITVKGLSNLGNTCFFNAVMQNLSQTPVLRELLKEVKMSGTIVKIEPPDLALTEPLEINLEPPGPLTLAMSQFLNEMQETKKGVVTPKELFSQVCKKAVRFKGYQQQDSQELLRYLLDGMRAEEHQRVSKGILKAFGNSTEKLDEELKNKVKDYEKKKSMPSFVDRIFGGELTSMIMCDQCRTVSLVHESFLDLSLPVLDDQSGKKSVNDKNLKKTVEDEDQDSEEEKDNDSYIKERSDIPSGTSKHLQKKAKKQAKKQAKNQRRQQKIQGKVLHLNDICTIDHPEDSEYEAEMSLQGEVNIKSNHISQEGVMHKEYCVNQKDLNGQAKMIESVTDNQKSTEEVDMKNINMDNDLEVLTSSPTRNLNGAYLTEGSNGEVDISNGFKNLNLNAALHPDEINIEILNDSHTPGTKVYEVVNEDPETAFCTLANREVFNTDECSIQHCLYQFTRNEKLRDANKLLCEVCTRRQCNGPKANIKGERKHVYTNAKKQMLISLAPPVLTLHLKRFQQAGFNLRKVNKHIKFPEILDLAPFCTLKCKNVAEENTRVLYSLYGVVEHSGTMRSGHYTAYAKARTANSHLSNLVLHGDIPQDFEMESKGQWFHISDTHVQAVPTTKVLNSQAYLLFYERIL
# UniProt Q9Y5B6: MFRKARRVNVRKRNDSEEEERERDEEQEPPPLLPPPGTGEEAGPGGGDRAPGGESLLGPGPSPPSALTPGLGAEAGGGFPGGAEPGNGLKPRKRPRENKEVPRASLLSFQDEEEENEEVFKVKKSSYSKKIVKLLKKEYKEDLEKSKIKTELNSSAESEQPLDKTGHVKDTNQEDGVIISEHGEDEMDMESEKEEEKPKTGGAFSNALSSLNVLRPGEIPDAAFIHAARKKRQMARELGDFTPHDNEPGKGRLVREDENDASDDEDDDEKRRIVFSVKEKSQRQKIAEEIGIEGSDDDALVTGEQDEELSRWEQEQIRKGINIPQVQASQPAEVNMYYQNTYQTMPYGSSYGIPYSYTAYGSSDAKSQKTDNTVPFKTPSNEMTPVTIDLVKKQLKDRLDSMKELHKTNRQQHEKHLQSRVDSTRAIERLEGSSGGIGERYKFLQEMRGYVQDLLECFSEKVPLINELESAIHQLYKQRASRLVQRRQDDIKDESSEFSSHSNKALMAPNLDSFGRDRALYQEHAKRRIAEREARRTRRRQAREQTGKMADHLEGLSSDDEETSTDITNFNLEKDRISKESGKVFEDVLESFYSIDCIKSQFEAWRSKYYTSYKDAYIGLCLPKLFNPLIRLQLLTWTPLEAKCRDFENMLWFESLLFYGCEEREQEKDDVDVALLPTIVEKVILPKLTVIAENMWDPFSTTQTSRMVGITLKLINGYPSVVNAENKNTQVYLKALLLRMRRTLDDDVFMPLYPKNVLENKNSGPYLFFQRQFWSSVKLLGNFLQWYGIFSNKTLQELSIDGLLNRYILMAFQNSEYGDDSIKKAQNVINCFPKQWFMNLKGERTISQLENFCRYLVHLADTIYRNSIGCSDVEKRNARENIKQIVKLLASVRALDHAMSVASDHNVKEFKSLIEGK
# UniProt Q9Y2Z0: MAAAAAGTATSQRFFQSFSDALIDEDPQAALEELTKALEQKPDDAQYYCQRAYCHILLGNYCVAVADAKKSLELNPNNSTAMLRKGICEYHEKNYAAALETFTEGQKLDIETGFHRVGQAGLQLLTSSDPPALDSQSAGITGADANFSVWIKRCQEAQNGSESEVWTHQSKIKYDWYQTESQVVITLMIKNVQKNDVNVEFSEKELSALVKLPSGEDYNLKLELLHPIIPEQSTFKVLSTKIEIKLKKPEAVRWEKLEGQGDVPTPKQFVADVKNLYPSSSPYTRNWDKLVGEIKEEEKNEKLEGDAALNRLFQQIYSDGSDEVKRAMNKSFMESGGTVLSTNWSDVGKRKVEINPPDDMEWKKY
# Compound: Cc1nc(Nc2ncc(C(=O)Nc3c(C)cccc3Cl)s2)cc(N2CCN(CCO)CC2)n1 [dasatinib]
# Assay: log2 fold change of tryptic peptide abundance, ligand vs vehicle (limited proteolysis) (log2 ratio); higher = more trypsin-susceptible (destabilized)
# Conditions: ligand concentration: 5 uM; sample: K562 cleared lysate
row,Target,log2 fold change
1,"FKBP7 (peptide sequence: NDHDGDGFISPK, peptide start residue: 201) (UniProt Q9Y680)",0.284
2,"MRPS18B (peptide sequence: ARDHGLLIYHIPQVEPR, peptide start residue: 157) (UniProt Q9Y676)",-0.112
3,"SLC30A1 (peptide sequence: AENIPAVVIEIK, peptide start residue: 485) (UniProt Q9Y6M5)",0.0671
4,"AK5 (peptide sequence: GFLIDGYPR, peptide start residue: 89) (UniProt Q9Y6K8)",-0.0329
5,"UniProt Q9Y333 (peptide sequence: MLFYSFFK, peptide start residue: 1)",-0.178
6,"TMEM98 (peptide sequence: TSASVSDIIVVAK, peptide start residue: 121) (UniProt Q9Y2Y6)",0.394
7,"USP20 (peptide sequence: MAPSYVLKK, peptide start residue: 417) (UniProt Q9Y2K6)",-0.223
8,"UFC1 (peptide sequence: CWYIHDLLK, peptide start residue: 69) (UniProt Q9Y3C8)",-0.345
9,"COG6 (peptide sequence: YTLDEFGTARR, peptide start residue: 264) (UniProt Q9Y2V7)",-0.368
10,"HCFC2 (peptide sequence: GYGPATQVR, peptide start residue: 1990) (UniProt Q9Y5Z7)",-0.232
11,"TIMM8B (peptide sequence: FIDTTLAITSR, peptide start residue: 63) (UniProt Q9Y5J9)",0.0238
12,"UniProt Q9Y6M4 (peptide sequence: GSLPWQGLK, peptide start residue: 247)",-0.248
13,"HEBP2 (peptide sequence: NEPTKENE, peptide start residue: 198) (UniProt Q9Y5Z4)",-0.202
14,"CHMP3 (peptide sequence: IPEIQATMR, peptide start residue: 120) (UniProt Q9Y3E7)",0.0781
15,"MTCL1 (peptide sequence: NRLPEEEENHKGNLQR, peptide start residue: 1367) (UniProt Q9Y4B5)",0.706
16,"PPME1 (peptide sequence: LLLLAGVDRLDKDLTIGQMQGK, peptide start residue: 317) (UniProt Q9Y570)",0.725
17,"CCDC61 (peptide sequence: EYSSEHQAADMAEIDAR, peptide start residue: 481) (UniProt Q9Y6R9)",0.596
18,"SNX8 (peptide sequence: EPESVEQLESR, peptide start residue: 365) (UniProt Q9Y5X2)",0.138
19,"DIS3 (peptide sequence: KIHEEFSEHALLR, peptide start residue: 677) (UniProt Q9Y2L1)",-0.669

row,Target,log2 fold change
1,"UniProt Q9Y6J8 (peptide sequence: SKWEYDESHVITALR, peptide start residue: 38)",-0.233
2,"ARFGEF2 (peptide sequence: WLCAVSMDELASPHHPR, peptide start residue: 1093) (UniProt Q9Y6D5)",-0.183
3,"HYOU1 (peptide sequence: TPVIVTLK, peptide start residue: 68) (UniProt Q9Y4L1)",0.112
4,"ORC6 (peptide sequence: IGQQVDREPGDVATPPR, peptide start residue: 182) (UniProt Q9Y5N6)",-0.206
5,"SNX14 (peptide sequence: LFNDLFK, peptide start residue: 757) (UniProt Q9Y5W7)",0.0468
6,"MYH15 (peptide sequence: MKYENNVIQR, peptide start residue: 1385) (UniProt Q9Y2K3)",-0.628
7,"AP4S1 (peptide sequence: FFLMVNK, peptide start residue: 4) (UniProt Q9Y587)",-0.155
8,"AUP1 (peptide sequence: VKEVLPHVPLGVIQR, peptide start residue: 304) (UniProt Q9Y679)",0.0789
9,"DYNC1LI1 (peptide sequence: KFCLQYGAALIYTSVKENK, peptide start residue: 273) (UniProt Q9Y6G9)",0.605
10,"ARL2BP (peptide sequence: SSSLPASQNNLR, peptide start residue: 151) (UniProt Q9Y2Y0)",0.087
11,"UniProt Q9Y448 (peptide sequence: DLTQKVELLEK, peptide start residue: 202)",0.407
12,"USP16 (peptide sequence: QMLISLAPPVLTLHLK, peptide start residue: 683) (UniProt Q9Y5T5)",0.709
13,"POLR3K (peptide sequence: SADEPMTTFYK, peptide start residue: 86) (UniProt Q9Y2Y1)",0.0597
14,"UniProt Q9Y6H3 (peptide sequence: RGPAAGEQLQQQHVSCQVFPER, peptide start residue: 10)",0.166
15,"ZSCAN21 (peptide sequence: AFGQSSDLLK, peptide start residue: 340) (UniProt Q9Y5A6)",-0.414
16,"UniProt Q9Y5B6 (peptide sequence: DRLDSMK, peptide start residue: 397)",-0.462
17,"SUGT1 (peptide sequence: SLELNPNNSTAMLRK, peptide start residue: 71) (UniProt Q9Y2Z0)",-0.202
18,"UTP11 (peptide sequence: ALEKNPDEFYYK, peptide start residue: 58) (UniProt Q9Y3A2)",0.296

# Single values from the entries so far.
# In log2 fold change, SNX14 (peptide sequence: LFNDLFK, peptide start residue: 757) (UniProt Q9Y5W7) is listed with 0.0468
# In log2 fold change, MYH15 (peptide sequence: MKYENNVIQR, peptide start residue: 1385) (UniProt Q9Y2K3) is listed with -0.628
# In log2 fold change, AUP1 (peptide sequence: VKEVLPHVPLGVIQR, peptide start residue: 304) (UniProt Q9Y679) is listed with 0.0789
